Measured data: PubChem BioAssay AID1159508 (Drosophila RNAi Screening Center, 2015)

- Aim: 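Overall cell fitness after RNAi as a quality check of the library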
- System: Drosophila S2R+ cells
- Reagents: long dsRNA against Drosophila genes
- Duration: 5 days
- Measurement: 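Total ATP per well measured by luciferase luminescence after 5 days, expressed as z-scores for each replicate and as their average across up to three replicates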
- Reading the numbers: mean ATP z-score and ATP z-score: higher = more total ATP luminescence
- Call rule: In these data the active calls have mean ATP z-score at about -2 or lower, or at about 2 or higher
- Meaning of the calls: active = strong ATP change (up or down); inactive = no strong ATP change
The deposit covers 812 reagents; below is an unselected part. 18 of all reagents (2.2%) were called active. 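Calls include both increased and decreased ATP; roughly one in four reagents has no third replicate value.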 Names joined by + are all predicted targets of the reagent. Reagent sequences are not shown. The record does not give: the amount of reagent.

target | DRSC id | mean ATP z-score | ATP z-score, replicate 1 | ATP z-score, replicate 2 | ATP z-score, replicate 3 | activity call
CG5641 | DRSC15852 | 0.272 | 0.00093 | 0.296 | 0.466 | inactive
CG5641 | DRSC37486 | -1.19 | -1.44 | -0.992 | -0.913 | inactive
PNPase | DRSC14304 | -0.297 | -0.394 | -0.16 | – | inactive
PNPase | DRSC36168 | 0.511 | 0.0914 | 0.671 | 0.672 | inactive
CG31957 | DRSC00207 | 1.62 | 1.01 | 1.72 | 1.81 | inactive
CG31957 | DRSC42712 | 0.652 | 0.277 | 0.601 | 0.952 | inactive
nanos | DRSC17018 | 0.233 | 0.164 | 0.237 | 0.253 | inactive
nanos | DRSC25268 | -0.775 | -1.39 | -0.544 | -0.247 | inactive
CstF64 | DRSC29486 | 1.58 | 0.499 | 1.85 | 2.08 | inactive
CstF64 | DRSC35659 | 1.32 | 0.849 | 1.19 | 1.65 | inactive
Rrp5 | DRSC15862 | 0.118 | 0.057 | 0.164 | – | inactive
Rrp5 | DRSC29039 | 0.0706 | -0.313 | 0.445 | – | inactive
Spt6 | DRSC31075 | 1.8 | 1.59 | 1.78 | – | inactive
Spt6 | DRSC37652 | 1.33 | 0.88 | 1.61 | – | inactive
Caper | DRSC02137 | 0.766 | 0.645 | 0.705 | 0.799 | inactive
Caper | DRSC42661 | -0.68 | -0.783 | -0.77 | -0.357 | inactive
glo | DRSC27807 | 0.785 | 0.605 | 0.721 | 0.878 | inactive
glo | DRSC34656 | 1.43 | 0.95 | 1.48 | 1.59 | inactive
wisp | DRSC23092 | 0.248 | -0.0416 | 0.506 | – | inactive
wisp | DRSC25917 | 0.62 | 0.314 | 0.847 | – | inactive
CG42372 + CG30100 | DRSC05602 | -0.561 | -0.682 | -0.367 | – | inactive
CG42372 + CG30100 | DRSC30025 | 0.167 | 0.0637 | 0.249 | – | inactive
U3-55K | DRSC29090 | -0.0868 | -0.409 | -0.324 | 0.49 | inactive
U3-55K | DRSC40959 | 0.429 | -0.0296 | 0.833 | – | inactive
Ski6 | DRSC02491 | -0.0918 | -0.362 | -0.151 | 0.256 | inactive
Ski6 | DRSC36019 | 0.682 | -0.00805 | 0.0459 | 1.88 | inactive
Ref2 | DRSC02563 | -0.0651 | -0.631 | -0.243 | 0.692 | inactive
Ref2 | DRSC42665 | -0.847 | -0.895 | -0.878 | -0.605 | inactive
Sas10 | DRSC18355 | -0.202 | -0.59 | 0.212 | – | inactive
Sas10 | DRSC36001 | -0.438 | -0.651 | -0.395 | -0.182 | inactive
CHKov1 | DRSC14258 | -0.491 | -0.622 | -0.297 | – | inactive
CHKov1 | DRSC33590 | 0.421 | 0.0708 | 0.272 | 0.839 | inactive
CG4866 | DRSC06899 | -0.223 | -0.39 | -0.19 | -0.047 | inactive
CG4866 | DRSC42676 | 1.24 | 0.841 | 1.06 | 1.58 | inactive
anox + SLIRP1 | DRSC20542 | -1.08 | -1.54 | -0.816 | -0.686 | inactive
anox + SLIRP1 | DRSC42713 | -0.374 | -0.683 | -0.226 | -0.14 | inactive
Dys | DRSC16220 | 0.755 | 0.315 | 0.898 | 0.908 | inactive
Dys | DRSC40685 | 0.28 | 0.00371 | 0.519 | – | inactive
CG13124 | DRSC02220 | -0.033 | -0.168 | -0.12 | 0.196 | inactive
CG13124 | DRSC27328 | -0.252 | -0.416 | -0.0549 | – | inactive

Continued (2 carried over from the part before).
target | DRSC id | mean ATP z-score | ATP z-score, replicate 1 | ATP z-score, replicate 2 | ATP z-score, replicate 3 | activity call
CG13124 | DRSC02220 | -0.033 | -0.168 | -0.12 | 0.196 | inactive
CG13124 | DRSC27328 | -0.252 | -0.416 | -0.0549 | – | inactive
CG30122 | DRSC34694 | -0.644 | -1.37 | -0.558 | 0.118 | inactive
CG30122 | DRSC34695 | 0.222 | -0.511 | 0.544 | 0.59 | inactive
mod | DRSC28409 | 0.198 | 0.108 | 0.263 | – | inactive
mod | DRSC42218 | -0.105 | -0.345 | 0.0152 | 0.0342 | inactive
Spf30 | DRSC11976 | -0.949 | -0.956 | -0.821 | – | inactive
Spf30 | DRSC42707 | 0.355 | -0.0567 | -0.0264 | 1.08 | inactive
Synj | DRSC04526 | -0.0878 | -0.333 | -0.123 | 0.21 | inactive
Synj | DRSC36874 | -0.812 | -0.856 | -0.715 | -0.709 | inactive
Smyd3 | DRSC26723 | 0.134 | -0.034 | -0.02 | 0.431 | inactive
Smyd3 | DRSC38965 | 2.52 | 1.78 | 2.93 | – | active
CR31054 | DRSC22134 | 0.288 | -0.427 | 0.107 | 1.13 | inactive
CG13096 | DRSC02198 | 0.716 | -0.16 | 0.521 | 1.65 | inactive
CG13096 | DRSC33862 | 0.412 | 0.242 | 0.444 | 0.472 | inactive
smg | DRSC11397 | -0.349 | -0.576 | -0.398 | -0.00672 | inactive
smg | DRSC28033 | 0.902 | 0.648 | 1.04 | – | inactive
shep | DRSC09771 | -0.914 | -1.08 | -0.928 | -0.559 | inactive
shep | DRSC34239 | 0.946 | 0.552 | 0.559 | 1.55 | inactive
MCTS1 | DRSC18393 | 1.12 | 0.438 | 1.28 | 1.42 | inactive
MCTS1 | DRSC42652 | 0.716 | -0.058 | 0.479 | 1.59 | inactive
Rm62 | DRSC25109 | -0.0186 | -0.355 | -0.195 | 0.498 | inactive
Rm62 | DRSC32538 | 0.405 | 0.27 | 0.367 | 0.5 | inactive
CG8778 | DRSC07264 | -0.244 | -0.308 | -0.202 | -0.176 | inactive
CG8778 | DRSC42674 | -0.564 | -0.821 | -0.461 | -0.301 | inactive
stau | DRSC07698 | 0.343 | 0.0751 | 0.178 | 0.711 | inactive
stau | DRSC34478 | 1.63 | 1.28 | 1.32 | 1.98 | inactive
LSm3 | DRSC15920 | 0.233 | -0.407 | 0.406 | 0.654 | inactive
LSm3 | DRSC42711 | 0.0346 | -0.182 | -0.0948 | 0.374 | inactive
piwi | DRSC03592 | 0.497 | 0.141 | 0.79 | – | inactive
piwi | DRSC42382 | -0.29 | -0.542 | -0.462 | 0.189 | inactive
xmas | DRSC22178 | -0.357 | -0.428 | -0.241 | – | inactive
xmas | DRSC36378 | -0.706 | -0.81 | -0.627 | -0.544 | inactive
eIF4H2 | DRSC27363 | -0.35 | -0.846 | -0.0777 | -0.0584 | inactive
eIF4H2 | DRSC42328 | 1.09 | 0.871 | 0.922 | 1.28 | inactive
CG4119 | DRSC27945 | 1.51 | 0.717 | 2.11 | – | inactive
CG4119 | DRSC35318 | 0.601 | -0.159 | 0.636 | 1.21 | inactive
Pym | DRSC23017 | -1.25 | -1.49 | -1.05 | -0.971 | inactive
Pym | DRSC40394 | 0.51 | 0.182 | 0.418 | 0.83 | inactive
bru1 | DRSC01237 | 0.0801 | -0.715 | 0.41 | 0.53 | inactive
bru1 | DRSC30638 | -0.105 | -0.201 | -0.0802 | -0.0121 | inactive
CG4896 | DRSC00671 | 0.0258 | -0.718 | -0.316 | 1.11 | inactive
CG4896 | DRSC24570 | -0.194 | -0.382 | -0.277 | 0.113 | inactive
